Test results from PubChem BioAssay AID2549 (National Center for Advancing Translational Sciences (NCATS), 2010).
In all, about 240,000 compounds went through this assay and about 1,300 (0.54%) were called active. This list was built around the results that the source calls inconclusive (neither active nor inactive); the mix of calls is not that of the screen. Calls follow the shape of the dose curve; as a rule, active = well fitted inhibition curve with a large enough effect; inconclusive = small, poorly fitted or top-dose-only effect; inactive = flat fitted curve, though single readings scatter. A potency beside an inconclusive call is a rough fit, not a confirmed value.

Protein sequences, listed by entry. Tags and fused reporters are not part of them. Lines headed by an entry give the natural chain unless they say otherwise; changes in a name come on top.
UniProt P46063: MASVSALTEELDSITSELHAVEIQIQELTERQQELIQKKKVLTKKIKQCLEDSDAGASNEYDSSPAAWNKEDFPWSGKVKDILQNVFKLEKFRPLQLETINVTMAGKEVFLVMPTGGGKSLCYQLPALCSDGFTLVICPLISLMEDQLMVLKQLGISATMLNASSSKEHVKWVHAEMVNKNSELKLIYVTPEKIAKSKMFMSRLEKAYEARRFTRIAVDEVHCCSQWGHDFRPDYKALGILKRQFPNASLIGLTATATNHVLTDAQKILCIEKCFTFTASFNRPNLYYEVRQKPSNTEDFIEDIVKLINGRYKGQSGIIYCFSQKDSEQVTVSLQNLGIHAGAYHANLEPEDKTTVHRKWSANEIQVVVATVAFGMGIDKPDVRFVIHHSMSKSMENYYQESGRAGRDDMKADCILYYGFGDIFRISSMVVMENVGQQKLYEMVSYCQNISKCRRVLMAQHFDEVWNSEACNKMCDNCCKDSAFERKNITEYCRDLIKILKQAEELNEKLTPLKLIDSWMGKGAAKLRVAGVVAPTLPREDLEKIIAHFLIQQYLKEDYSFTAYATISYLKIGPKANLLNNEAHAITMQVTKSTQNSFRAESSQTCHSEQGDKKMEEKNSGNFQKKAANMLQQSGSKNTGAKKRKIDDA

molecular target: ATP-dependent DNA helicase Q1 (Homo sapiens) (UniProt P46063); test: qHTS Assay for Inhibitors of RecQ-Like Dna Helicase 1 (RECQ1); conditions: RECQ1 DNA unwinding, red fluorescence kinetic read; activity, negative = inhibition: at 57.3 µM (top of the series); series mostly up to 57.3 µM; also: nearly all actives have a fitted effect of over 30% in size;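 as to activity, negative = inhibition: plate controls were vehicle for no effect and no enzyme for full effect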
How it was run: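 RECQ1T1 50 nM; forked duplex (20 bp + 30-nt ss tails) 200 nM, ATP 2 mM final; pH 8.0, 2 mM MgCl2, 2.5 ug/ml poly(dI-dC); 15 min compound preincubation; discontinuous kinetic read over 2 h at RT.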
Potency is read from the fitted curve at half-maximal effect.

Structure (SMILES)	Potency	activity, negative = inhibition
CNC(=O)COC(=O)c1cc(-c2ccccc2)nn1-c1ccccc1	inconclusive: 2.82 µM [inhibitor, partial curve]	–
CC1=NN(C(N)=S)C(=O)C1N=Nc1c(C)cc(C)cc1C (stereo not drawn)	–	inactive: -0.827%
COc1cc(/C=C2/C(C)=C(C#N)c3nc(N)c(C#N)c(C)c32)ccc1OCC(=O)O	inconclusive: 35.5 µM [inhibitor, single point]	–
O=C(CN(c1ccccc1)S(=O)(=O)c1ccccc1)NCCSCc1ccco1	active: 14.1 µM	–
CC(C)C[C@H](NC(=O)[C@H](CCCCN)NC(=O)CNC(=O)[C@H](CC(C)C)NC(=O)[C@@H](N)C(C)C)C(=O)N[C@@H](CO)C(=O)N[C@@H](CCC(N)=O)C(=O)N[C@@H](CCC(=O)O)C(=O)N[C@@H](CC(C)C)C(=O)N[C@@H](Cc1cnc[nH]1)C(=O)N[C@@H](CCCCN)C(=O)N[C@@H](CC(C)C)C(=O)N[C@@H](CCC(N)=O)C(=O)N[C@H](C(=O)N[C@@H](Cc1ccc(O)cc1)C(=O)N1CCC[C@H]1C(=O)N[C@@H](CCCNC(=N)N)C(=O)N[C@H](C(=O)N[C@@H](CC(N)=O)C(=O)N[C@H](C(=O)NCC(=O)N[C@@H](CO)C(=O)NCC(=O)N[C@H](C(=O)N1CCC[C@H]1C(N)=O)[C@@H](C)O)[C@@H](C)O)[C@@H](C)O)[C@@H](C)O	–	inactive: -11.9%
NNC(=O)c1cc(O)c(O)c(O)c1	active: 3.16 µM	–
NS(=O)(=O)c1ccc(-c2ccc(C=O)o2)cc1	–	inactive: -3.84%
COc1cc2c(c(OC)c1OC)-c1c(cc3c(c1OC)OCO3)C1OC2[C@@H](C)[C@H]1C (stereo partly drawn)	inconclusive: 4.47 µM [inhibitor, partial curve]	–
O=C(COC(=O)c1cccc(S(=O)(=O)N2CCN(c3ccccc3)CC2)c1)NCc1ccco1	active: 35.5 µM	–
CCOC(=O)C1CCN(c2cc(=O)n(Cc3ccc(F)cc3)c(=O)[nH]2)CC1	inconclusive: 1.58 µM [inhibitor, full curve]	–
CCN1C(=O)N(C)[C@@H](c2ccccc2)C(C(=O)OC)=C1C	inconclusive: 0.794 µM [inhibitor, single point]	–
O=C(O)c1cccc(N2C(=O)/C(=C/c3ccc([N+](=O)[O-])cc3)C=C2c2ccccc2)c1	inconclusive: 39.8 µM [inhibitor, single point]	–
COc1ccc(C2CC(c3ccccc3)=NN2S(=O)(=O)c2ccccc2)cc1 (stereo not drawn)	inconclusive: 11.2 µM [inhibitor, partial curve]	–
CCn1c(SCC(=O)NCc2ccco2)nc2ccccc2c1=O	inconclusive: 35.5 µM [inhibitor, single point]	–
C/C(=N\NC(=O)c1ccccc1[N+](=O)[O-])c1c(O)cc(C)oc1=O	inconclusive: 39.8 µM [inhibitor, single point]	–
CCCCCCCCCCCCCCCCOC[C@H](COP(=O)([O-])OCC[N+](C)(C)C)OC(=O)CCCCCCCC(=O)O	inconclusive: 39.8 µM [inhibitor, single point]	–
Cc1cccc(C)c1NC(=O)/C(C#N)=C/c1cccs1	inconclusive: 25.1 µM [inhibitor, partial curve]	–
Nc1ccc(Cc2ccc(N)c(C(=O)O)c2)cc1C(=O)O	–	inactive: -3.96%
CCn1c(C)cc(/C=C2/NC(=O)N(c3ccccc3)C2=O)c1C	inconclusive: 35.5 µM [inhibitor, single point]	–

Structure (SMILES)	Potency	activity, negative = inhibition
CCN(CC)S(=O)(=O)c1ccc(OC)c(NC(=O)Cc2cccs2)c1	inconclusive: 31.6 µM [inhibitor, single point]	–
O=C(Cc1ccc(S(=O)(=O)N2CCCC2)s1)NC1CCCCCC1	inconclusive: 39.8 µM [inhibitor, single point]	–
O=C(Nc1cccc(S(=O)(=O)NC2=NCCC2)c1)c1cc(-c2ccco2)nc2ccccc12	active: 11.2 µM	–
CCNc1ncc2nc(-c3cc(F)cc(F)c3)c(=O)n(CCc3ccccc3)c2n1	inconclusive: 22.4 µM [inhibitor, single point]	–
O=[N+]([O-])c1ccc(O)c(/C=N/Nc2nn[nH]n2)c1	–	inactive: -4.92%
O=C(CCO)c1ccc(O)cc1	active: 25.1 µM	–
NC(N)=NCCC[C@H](N)C(=O)N1CCC[C@H]1C(=O)N1CCC[C@H]1C(=O)NCC(=O)N[C@@H](Cc1ccccc1)C(=O)N[C@@H](CO)C(=O)N1CCC[C@H]1C(=O)N[C@@H](Cc1ccccc1)C(=O)O	–	inactive: -2.45%
COc1cccc(C2C(C#N)=C(N)Oc3cc(N)ccc32)c1OC (stereo not drawn)	inconclusive: 39.8 µM [inhibitor, single point]	–
CCOc1ccc(CN2CCN(C3CCSCC3)CC2CCO)cc1 (stereo not drawn)	inconclusive: 5.01 µM [inhibitor, single point]	–
O=C(CSc1n[nH]c(-c2ccncc2)n1)c1ccccc1	–	inactive: 5.93%
CNC(=O)Nc1ccccc1NC(=O)NC	inconclusive: 0.447 µM [inhibitor, partial curve, poor fit]	–
O=c1ccc(C(F)(F)F)cn1Cc1cc(=O)n2cc(Br)ccc2n1	inconclusive: 25.1 µM [inhibitor, partial curve]	–
CC(C)n1c(O)c(N=Nc2ccc(Cl)nn2)c2ccccc21	inconclusive: 31.6 µM [inhibitor, single point]	–
O=C(c1ccc(=O)oc1)N1CCOCC1	–	inactive: -9.65%
CN1CCN(c2ncnc3ccc(-c4ccccc4Cl)cc23)CC1	–	inactive: -12.2%
COc1ccc(C2Nc3ccccc3C(=O)N2Cc2ccccc2)cc1COc1ccccn1 (stereo not drawn)	–	inactive: -5.93%
CC(C)(C)c1cc(NC(=O)COc2ccc(Br)cc2)n(-c2ccccc2)n1	inconclusive: 39.8 µM [inhibitor, single point]	–
COc1ccc(-n2c(O)c(/C=N/Nc3nc(C)cc(C)n3)c3ccccc3c2=O)cc1OC	–	inactive: -12.5%
NCCCC[C@H](NC(=O)[C@H](CCCN=C(N)N)NC(=O)[C@H](CO)NC(=O)[C@H](CCCN=C(N)N)NC(=O)[C@@H](N)Cc1ccc(O)cc1)C(=O)N[C@@H](Cc1ccc(O)cc1)C(=O)N[C@@H](CO)C(=O)N[C@@H](CO)C(=O)N[C@@H](Cc1c[nH]c2ccccc12)C(=O)N[C@@H](Cc1ccc(O)cc1)C(=O)O	–	inactive: -9.93%

Pulled by compound from above:
Structure (SMILES)	Potency	activity, negative = inhibition
O=c1ccc(C(F)(F)F)cn1Cc1cc(=O)n2cc(Br)ccc2n1	inconclusive: 25.1 µM [inhibitor, partial curve]	–
CC(C)n1c(O)c(N=Nc2ccc(Cl)nn2)c2ccccc21	inconclusive: 31.6 µM [inhibitor, single point]	–
